In PubChem BioAssay AID1671190 (National Center for Advancing Translational Sciences (NCATS), 2021):
The campaign covered roughly 580,000 compounds. About 6,100 (1.1%) were called active. This list was built around the results that the source calls inconclusive (neither active nor inactive); the mix of calls is not that of the screen. Calls come from the whole dose curve; as a rule, active = well fitted inhibition curve with a large enough effect; inconclusive = small, poorly fitted or top-dose-only effect, or another doubt; inactive = no such curve, though single readings can be large or run the other way. A potency beside an inconclusive call is a rough fit, not a confirmed value.

Protein sequences, listed by entry. Tags and fused reporters are not part of them.
UniProt P18054, whole entry, looked up: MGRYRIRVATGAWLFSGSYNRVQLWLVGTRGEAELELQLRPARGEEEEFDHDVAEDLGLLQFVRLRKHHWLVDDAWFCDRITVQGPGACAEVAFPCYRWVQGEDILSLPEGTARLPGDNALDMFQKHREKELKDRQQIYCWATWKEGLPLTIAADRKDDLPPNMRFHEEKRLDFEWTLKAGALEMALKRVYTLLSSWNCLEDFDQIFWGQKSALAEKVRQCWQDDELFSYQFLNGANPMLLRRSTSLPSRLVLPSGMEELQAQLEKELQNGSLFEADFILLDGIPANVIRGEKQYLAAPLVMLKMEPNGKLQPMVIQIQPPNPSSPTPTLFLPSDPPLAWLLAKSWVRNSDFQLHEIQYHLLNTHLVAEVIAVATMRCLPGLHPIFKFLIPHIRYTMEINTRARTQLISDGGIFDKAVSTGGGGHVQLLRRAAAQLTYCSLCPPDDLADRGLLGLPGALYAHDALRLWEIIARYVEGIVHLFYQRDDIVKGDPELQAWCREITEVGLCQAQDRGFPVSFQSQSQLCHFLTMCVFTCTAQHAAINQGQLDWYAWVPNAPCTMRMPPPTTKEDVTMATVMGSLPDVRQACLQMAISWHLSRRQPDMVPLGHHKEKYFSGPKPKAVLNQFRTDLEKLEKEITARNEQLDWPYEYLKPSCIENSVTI

Target: Polyunsaturated fatty acid lipoxygenase ALOX12 (Homo sapiens) (UniProt P18054)
Experiment: Primary qHTS assay for inhibitors of human arachidonate 12S-lipoxygenase (ALOX12): Round 2
Settings: purified 12hLO, xylenol orange hydroperoxide absorbance; activity change, negative = inhibition: at 108 µM (top of the series) unless noted
How it was run: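 Purified human 12hLO at 150 nM in 25 mM Hepes, 0.01% Triton X-100, pH 7.0, preincubated 15 min at room temperature with compound. Reaction started with 40 uM arachidonic acid, 30 min at room temperature. Hydroperoxide measured by Fe-xylenol orange, 573/405 nm absorbance ratio.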
% is set by controls: 0 for no effect and ±100 for the full control effect; potency is the fitted concentration of half-maximal effect.

Structure (SMILES)	activity change, negative = inhibition	Potency
Cc1nnsc1S(=O)c1ccc(Cl)c(Cl)c1 (centres undefined)	inactive: 17.5%	–
COc1ccc(-n2nc(C)c([C@@H]3C=C[C@@H](NC(=S)NCC(C)C)C3)c2C)cc1	–	inconclusive: 100 µM [inhibitor, partial curve]
O=C(CN1C(=O)c2ccccc2S1(=O)=O)Nc1ccc(S(=O)(=O)N2CCCCC2)cc1	–	inconclusive: 44.7 µM [inhibitor, partial curve]
CCCCc1nc2ccccc2c(NC(=O)CNC(C)(C)C)c1CCC	–	inconclusive: 0.1 µM [inhibitor, full curve, poor fit]
O=C(CN1C(=O)C(c2ccccc2)=NC12CCCC2)Nc1cccc(C(F)(F)F)c1	inactive: 40.3%	–
CCC1(N2CCN(S(=O)(=O)c3ccc(Cl)s3)CC2)CCN(S(C)(=O)=O)C1 (centres undefined)	–	inconclusive: 10 µM [inhibitor, partial curve]
O=C1OC(c2ccc(Cl)cc2)=N/C1=C\C=C\c1ccco1	–	inconclusive: 50.1 µM [inhibitor, partial curve, poor fit]
O=C(CCCc1nc2ccccc2o1)NCc1ccc(F)cc1	inactive: -29.9%	–
CC1(OC(=O)CCc2ccccc2)C(=O)C=C2C=C(c3ccc(C#N)cc3)N(C3CCCCC3)C=C2C1=O (centres undefined)	–	inconclusive: 70.8 µM [inhibitor, partial curve, poor fit]
O=C(NCC#Cc1ccccc1)NNC(=O)c1cccnc1	inactive: 18.4%	–
Cc1ccc(O)c(C(=O)N(C)Cc2ccc(Cl)cc2Cl)c1	–	inconclusive: 6.31 µM [inhibitor, full curve, poor fit]
O=C(NCC(=O)N1CCc2ccccc21)NCc1ccccc1	inactive: 22.7%	–
O=C(COc1c(I)cc(Cl)c2cccnc12)N1CCCC1	–	inconclusive: 50.1 µM [inhibitor, partial curve, poor fit]
O=C(CCCN1C(=O)/C(=C\c2ccccc2)SC1=S)Nc1ccc(O)cc1C(=O)O	–	inconclusive: 50.1 µM [inhibitor, partial curve, poor fit]
O=C(O)c1cccc(NC(CNS(=O)(=O)c2ccc(Cl)cc2)c2ccccc2)c1 (centres undefined)	–	inconclusive: 50.1 µM [inhibitor, partial curve, poor fit]
COc1cc(NC(=S)NC(=O)c2cccs2)ccc1NC(=O)C(C)C	–	active: 7.08 µM
COc1ccc2cc(C(=O)c3ccccc3)c(=O)oc2c1	–	inconclusive: 22.4 µM [inhibitor, full curve, poor fit]
CCCCc1n[nH]c(=S)n1Cc1ccccc1	–	inconclusive: 50.1 µM [inhibitor, partial curve, poor fit]
CC(C)OC(=O)c1cc2c(ccn2C)n1CC(=O)N(Cc1ccccc1)c1ccccc1	–	inconclusive: 11.2 µM [inhibitor, partial curve, poor fit]
Cc1cc(C)cc(OCC(=O)N(Cc2ccccc2)C2CCS(=O)(=O)C2)c1 (centres undefined)	–	inconclusive: 112 µM [inhibitor, single point]
CCOC(=O)c1c(C)[nH]c(C2=NNC(=Nc3ccc(OCC)cc3)SC2)c1C	–	inconclusive: 35.5 µM [inhibitor, partial curve, poor fit]
CCOc1ccc(CCN2C(=O)C(=O)N([C@@H](CC(C)C)CN3CCC[C@@H]3CN3C(=O)C(=O)NC[C@@H]3CC(C)C)C[C@@H]2Cc2ccccc2)cc1	–	inconclusive: 89.1 µM [inhibitor, partial curve, poor fit]
Cc1nc2c(c(=O)[nH]1)CCN(C(=O)c1cn(CCC3CCCCN3)nn1)CC2 (centres undefined)	inactive: 9.08%	–

Structure (SMILES)	activity change, negative = inhibition	Potency
CCC(CC)NC(=O)Nc1ccc(Cl)cc1Cl	inactive: 14.3%	–
COC(=O)C1=CN(c2ccc3c(c2)OCO3)C(N)=C(C#N)C1c1ccccc1 (centres undefined)	–	inconclusive: 31.6 µM [inhibitor, partial curve]
Cc1cccc(CSc2nnc(COc3ccc(Cl)c(C)c3)n2C)c1	–	inconclusive: 35.5 µM [inhibitor, single point]
O=C(O)CCCC(=O)N1CCN(C(=O)c2ccco2)CC1	inactive: 11.6%	–
Cc1ccc(NC(=O)[C@H](C)NC(=O)C2CCN(C(=O)[C@@H](N)CC(C)C)CC2)cc1	–	inconclusive: 25.1 µM [inhibitor, single point]
COc1cccc(-c2cncnc2NCc2cccnc2)c1	–	inconclusive: 50.1 µM [inhibitor, partial curve, poor fit]
C/C(=N\NC(=S)NCCc1ccccc1)c1ccc(Cl)cc1Cl	–	active: 44.7 µM
COc1cc(C)c(CN2CCC3(CC2)[C@H](O)C[C@@H]3OCCN)cc1C	inactive: 30.5%	–
Cc1ccc(C(=O)C(C)OC(=O)c2cnccn2)cc1 (centres undefined)	–	inconclusive: 39.8 µM [inhibitor, partial curve, poor fit]
O=C1NC[C@@H](CCCCN2C[C@H](Cc3ccc(O)cc3)N(CCc3ccccc3)C(=O)C2=O)N(CCC2CCCCC2)C1=O	–	inconclusive: 56.2 µM [inhibitor, partial curve, poor fit]
C=CCNc1nc(-c2sc(NC(=O)C(C)(C)C)nc2C)c(-n2cc(-c3ccccc3)nn2)s1	–	inconclusive: 50.1 µM [inhibitor, partial curve, poor fit]
COc1ccc(Br)c2c1-c1nc(NC(=O)c3cccc(C)c3)sc1C2	–	inconclusive: 56.2 µM [inhibitor, partial curve, poor fit]
Cc1ccc(NNC(=O)c2c(F)cccc2Cl)cc1C	–	inconclusive: 50.1 µM [inhibitor, partial curve, poor fit]
CCn1cnnc1-c1nn(C)c2c1CN(C(=O)C(C)c1ccccc1)CC2 (centres undefined)	inactive: 36.8%	–
C/C(CC(=O)NC(C)(C)C)=N\NC(N)=S	inactive: -29.2%	–
O=c1c(-c2cccc(F)c2)nc2cncnc2n1Cc1ccc(F)cc1	–	inconclusive: 89.1 µM [inhibitor, single point]
O=C(C1CCN(Cc2ccc(Cl)cc2)CC1)N1CCN(C(c2ccccc2)c2ccccc2)CC1	–	inconclusive: 6.31 µM [inhibitor, full curve]
CCn1c(SCC(=O)NCCc2ccccc2)nnc1-c1cccs1	inactive: -19.6%	–
COc1cccc(CN2CCN(C(=O)c3cccc4ccccc34)CC2)c1	inactive: -20.7%	–
S=c1[nH]nc(COc2ccc(Cl)cc2)o1	–	inconclusive: 44.7 µM [inhibitor, partial curve]
O=C(CSc1ccc2c(c1)OCCCO2)NCc1ccc2c(c1)OCO2	inactive: 3.53%	–
Cc1ccc(C(=O)NC(Nc2ccc(Cl)cc2)C(Cl)(Cl)Cl)cc1 (centres undefined)	–	inconclusive: 35.5 µM [inhibitor, partial curve]
O=C(OCc1nc(-c2cccc(Cl)c2)no1)c1ccc(Cl)s1	inactive: -22.5%	–

Reformatted with each value named: entries from further up.
Cc1ccc(NNC(=O)c2c(F)cccc2Cl)cc1C
  Potency: inconclusive: 50.1 µM [inhibitor, partial curve, poor fit]
CCn1cnnc1-c1nn(C)c2c1CN(C(=O)C(C)c1ccccc1)CC2 (centres undefined)
  activity change, negative = inhibition: inactive: 36.8%
C/C(CC(=O)NC(C)(C)C)=N\NC(N)=S
  activity change, negative = inhibition: inactive: -29.2%

Remaining list, next part.

Structure (SMILES)	activity change, negative = inhibition	Potency
CCOCCCNC(=O)c1ccc2c(c1)OCO2	inactive: 7.18%	–
CC1=CC(=C(C#N)c2nc3ccccc3s2)C=C(C)N1CC1CCCO1 (centres undefined)	–	inconclusive: 70.8 µM [inhibitor, partial curve, poor fit]
CCCCN1C2=NC(c3ccccc3)CN2c2ccccc21 (centres undefined)	–	inconclusive: 112 µM [inhibitor, partial curve, poor fit]
Cc1ccc(CN=c2c([N+](=O)[O-])nn(-c3cccc(C)c3)n2O)cc1	inactive: -4.26%	–
Cc1c(Cl)c(-c2n[nH]c(=S)n2Cc2ccco2)nn1C	–	inconclusive: 50.1 µM [inhibitor, partial curve, poor fit]
CCC1(CC)Cc2ccccc2-c2nc(CCl)[nH]c(=O)c21	–	active: 7.08 µM
CCC(Oc1ccccc1)C(=O)Nc1ccccc1C(=O)N1CCCCC1 (centres undefined)	inactive: 8.42%	–
CC(=O)c1cccc(NC(=O)COC(=O)c2ccccc2OCc2cccc(Br)c2)c1	–	inconclusive: 39.8 µM [inhibitor, partial curve, poor fit]
O=C(N/N=C/c1cc(Cl)ccc1O)C(=O)Nc1ccccc1OC(F)(F)C(F)F	inactive: -15.7%	–
CNC(=O)CCn1ncc2cc(OCc3ccccc3-c3cc(F)ccc3OC)ccc21	–	inconclusive: 100 µM [inhibitor, partial curve]
COc1ccc(CCNC(=O)CN(c2ccc(C)cc2)S(=O)(=O)c2ccc(OC)cc2)cc1	–	inconclusive: 158 µM [inhibitor, partial curve, poor fit]
CCOc1cc(C)c(N)cc1C(C)C	–	inconclusive: 3.98 µM [inhibitor, full curve, poor fit]
COC(=O)c1c(-c2cccs2)csc1NC(=O)CN1CCOCC1	inactive: 0%	–
COc1ccc(N2CCN(CCCNC(=O)Nc3ccccc3Cl)CC2)cc1	inactive: -24.3%	–
COc1cc2c(cc1OC)C1=NC(=O)CN1C(SCc1ccc(C)cc1)=N2	–	inconclusive: 2.24 µM [inhibitor, full curve, poor fit]
C=C(C)CSc1nnc([C@@H]2CCCN2)o1	–	inconclusive: 31.6 µM [inhibitor, single point]
Cc1csc(NS(=O)(=O)c2ccc(Cl)cc2)n1	–	inconclusive: 35.5 µM [inhibitor, partial curve, poor fit]
CC(C)=C1C2CCC1C(C(=O)Nc1cc(C)cc(C)c1)C2C(=O)O (centres undefined)	–	inconclusive: 10 µM [inhibitor, full curve, poor fit]
COc1cccc(-c2ccc(O)c(CNC(c3ccccc3)c3ccc(Cl)cc3)c2)n1 (centres undefined)	–	inconclusive: 100 µM [inhibitor, single point]
COC(=O)CC1Oc2ccc(C)cc2NC1=O (centres undefined)	inactive: 239%	–
Cc1ccc(-c2nc3ccc([N+](=O)[O-])cc3[nH]2)cc1	–	inconclusive: 15.8 µM [inhibitor, partial curve, poor fit]
CCN1CCN(c2ccc(NC(=O)c3cccnc3)cc2Cl)CC1	inactive: 47.1%	–
CN(C)CC(=O)c1c(N)n(Cc2ccccc2)c(=O)n(C)c1=O	inactive: -0.175%	–

Some of these compounds in order of length of the SMILES, largest number first:
Structure (SMILES)	activity change, negative = inhibition	Potency
CCC(Oc1ccccc1)C(=O)Nc1ccccc1C(=O)N1CCCCC1 (centres undefined)	inactive: 8.42%	–
CCC1(CC)Cc2ccccc2-c2nc(CCl)[nH]c(=O)c21	–	active: 7.08 µM
CCOCCCNC(=O)c1ccc2c(c1)OCO2	inactive: 7.18%	–
